The assay can be described thus: qHTS Assay for Lipid Storage Modulators in Drosophila S3 Cells.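 On cell number change: cells counted by Cell Tracker Red CMTPX staining in the red channel.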 The following applies: BODIPY lipid droplet fluorescence, 18-24 h; for cell number change: measured here: cell count max response, cells fed with added oleic acid. The method in brief:
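Drosophila S3 cells loaded with oleic acid (400 uM, as added) and compounds at several concentrations; lipid droplets imaged by 488-nm laser-scanning cytometry, 500–530 nm intensity and object ratio to cell channel. Percent activity normalized to 20 uM Triacsin C.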
For orientation: qHTS replaces the single test concentration by a dilution series.

The mark [1] stands for this setting: measured here: lipid fluorescence (Fed channel) AC50, cells fed with added oleic acid.
[2] abbreviates: measured here: cell number channel AC50, cells fed with added oleic acid.

As usually defined, the AC50 is the concentration at which the activity in the assay is half-maximal.

Some of the results follow. The main result of the screen is listed elsewhere. These columns were measured beside it and carry no call. The list favours compounds with an active or inconclusive main result. Potencies come from curve fits of mixed quality, noted in brackets.

Consider `O=C1Cc2cc([N+](=O)[O-])ccc2N1c1c(Cl)cccc1Cl`, for which the AC50 under setting [1] is 29.1 µM [falling, single point].

As to `O=C(Cc1ccc(Cl)cc1)Nc1ccccc1C(=O)N1CCCC1`, the cell number change is -21.3%.

For the compound `Cc1cc(C)n(-c2nc(Nc3ccccc3C)nc(-n3nc(C)cc3C)n2)n1`, the cell number change was -20.4%. The AC50 under setting [1] was 29.1 µM [falling, single point].

As for `COc1ccc(OCCNC(=O)CSc2ccc(C(F)(F)F)cc2[N+](=O)[O-])cc1`, the cell number change turned out to be 9.47%. Further, under setting [1], the AC50 was 8.2 µM [rising, partial curve].

Consider `CCN(CC(=O)NCc1cccs1)C(=O)/C=C/c1cc(Br)ccc1OC(F)F`, for which the cell number change is -35.1%. Moreover, the AC50 under setting [2] was 23.1 µM [falling, single point]. Also, under setting [1], the AC50 is 25.9 µM [falling, partial curve, poor fit].

Turning to `O=C1CC(N2CCN(Cc3ccc4c(c3)OCO4)CC2)C(=O)N1c1cccc(Cl)c1` (stereo not given), the cell number change worked out at 34.4%. Under setting [2], the AC50 is 8.2 µM [rising, partial curve]. Further, under setting [1], the AC50 is 6.51 µM [falling, single point].

Turning to `CCCCC(=O)Nc1cc(C(=O)NCCc2ccccc2)ccc1Cl`, the cell number change was -8.32%. Besides, under setting [1], the AC50 is 0.517 µM [falling, full curve, poor fit].

As to `COC(=O)C1CCN(C(=O)NC2CC(=O)N(c3ccc4c(c3)OCCO4)C2)CC1` (stereo not given), the cell number change is -36.4%. The AC50 under setting [2] is 0.0517 µM [falling, full curve, poor fit]. Moreover, the half-maximal activity concentration (AC50) under setting [1] was 0.146 µM [falling, full curve, poor fit].

Consider `COC(=O)Cc1c(C)c2ccc(OC3CCCCC3=O)cc2oc1=O` (stereo not given), for which the cell number change was 11.7%. The AC50 under setting [2] is 6.51 µM [rising, single point].

With `COc1ccc(CC(=S)N2CCOCC2)cc1`, the cell number change was -77.6%. The half-maximal activity concentration (AC50) under setting [2] was 2.59 µM [falling, full curve]. Besides, the AC50 under setting [1] is 4.11 µM [falling, partial curve].

Take `CCn1c(-c2cc(-c3cccc(OC)c3)nc3ccccc23)n[nH]c1=S`: the cell number change came to 24.6%. For the same compound, the AC50 under setting [2] is 2.59 µM [rising, full curve, poor fit].

With `CCc1c(C)nc2c(-c3ccccc3OC)c(C)[nH]n2c1=O`, the cell number change is -23.5%. Moreover, under setting [2], the AC50 was 4.11 µM [falling, full curve, poor fit]. For the same compound, under setting [1], the AC50 is 0.651 µM [falling, full curve, poor fit].

For the compound `CSc1ccccc1C(=O)Nc1ccccc1C`, the cell number change worked out at 65.9%.

Consider `CN(C)S(=O)(=O)c1ccc(Cl)c(NC(=O)c2ccncc2)c1`, for which the cell number change stood at 2.52%. For the same compound, the AC50 under setting [2] was 0.651 µM [rising, single point]. The AC50 under setting [1] is 14.6 µM [rising, partial curve].

Turning to `O=C(NC(=S)Nc1ccccc1Cl)C1CC1`, the cell number change was determined as 10.6%. For the same compound, under setting [1], the AC50 is 9.2 µM [rising, partial curve, poor fit].

`CC(C)CNC(=S)NC(=O)c1ccccc1Cl`: the cell number change came out at 10.4%. For the same compound, the AC50 under setting [2] was 0.00461 µM [rising, full curve, poor fit].

Take `Cc1ccc(C)c2c1[nH]c1ccc([N+](=O)[O-])cc12`: the AC50 is, setting by setting: under setting [2], 0.13 µM [rising, full curve, poor fit]; under setting [1], 9.2 µM [rising, partial curve].

Consider `CCOC(=O)c1c(NC(=O)COC(=O)c2nc(Cl)ccc2Cl)sc(C(=O)NC)c1C`, for which the cell number change was -2.41%.

In the case of `CCN(C(=O)c1ccc(S(=O)(=O)N2CCCCC2)cc1)C1CCS(=O)(=O)C1` (stereo not given), the half-maximal activity concentration (AC50) under setting [2] is 0.00461 µM [falling, full curve, poor fit].

Take `COc1cc2ccccc2cc1C(=O)N1CCCC(C(F)(F)F)C1` (stereo not given): the cell number change was -18%.

With `Cc1ccc(-c2ccc(SCC(=O)Nc3nonc3C)nn2)cc1`, the cell number change was -22.5%. Moreover, the AC50 under setting [1] was 0.58 µM [falling, single point].

Consider `O=C(CN1C(=O)S/C(=C\C=C\c2ccccc2)C1=O)NC1CCS(=O)(=O)C1` (stereo not given), for which the cell number change was -24.1%. For the same compound, under setting [1], the half-maximal activity concentration (AC50) is 29.1 µM [falling, single point].

In the case of `O=C1C(=C(c2ccccc2)c2ccccc2)Nc2ccccc21`, the cell number change is -90.3%. Under setting [2], the AC50 was 5.8 µM [falling, full curve]. For the same compound, the AC50 under setting [1] was 1.84 µM [falling, full curve].

Regarding `O=C(c1c(F)cccc1F)N1CCN(S(=O)(=O)c2ccc3c(c2)OCCO3)CC1`, the cell number change is -18.4%.

In the case of `O=C(Nc1cccc(-c2cccc(Cl)c2)c1)C1CCN(Cc2ccon2)CC1`, the AC50 under setting [1] is 0.366 µM [rising, full curve, poor fit].

For the compound `Cc1cccc(-c2nc(CSCC(=O)N3CCN(c4ccccn4)CC3)c(C)o2)c1`, the cell number change is -62.6%. For the same compound, the AC50 under setting [2] is 29.1 µM [falling, single point]. Under setting [1], the AC50 is 29.1 µM [falling, single point].

For `CC(C)C1N(C(=O)CN2CCCCC2)CCN1S(=O)(=O)c1ccccc1` (stereo not given), the cell number change was -34.8%.

`O=S(=O)(NC1CCC(NS(=O)(=O)c2c(F)cccc2F)CC1)c1ccc2c(c1)OCCO2` (stereo not given): the cell number change came to 7.49%. Moreover, the AC50 under setting [1] was 5.8 µM [rising, single point].

On to `O=C(O)[C@H](Cc1c[nH]c2ccccc12)Nc1ncccc1[N+](=O)[O-]`, for which the cell number change was -16.2%. Also, under setting [1], the half-maximal activity concentration (AC50) was 3.66 µM [falling, full curve].

For the compound `CC(C)[C@H](NC(=O)c1ccco1)C(=O)Nc1ccc(OC(F)F)cc1`, the cell number change is 59.9%. Under setting [2], the half-maximal activity concentration (AC50) is 1.84 µM [rising, partial curve].

As to `O=C(NNC(=O)c1cccs1)c1ccccc1`, the cell number change turned out to be 53.2%. Also, under setting [2], the AC50 was 0.13 µM [rising, full curve, poor fit].

`NC(=O)c1ccc(NC(=O)COC(=O)/C=C/c2cn(-c3ccccc3)nc2-c2cccnc2)cc1`: the cell number change is -35.6%. Besides, the AC50 under setting [2] is 0.82 µM [falling, full curve, poor fit]. Moreover, the AC50 under setting [1] was 3.66 µM [rising, single point].

For the compound `O=C(NCc1ccccc1)C(=O)NCC1OCCN1S(=O)(=O)c1ccc2c(c1)OCCO2` (stereo not given), the cell number change was found to be 5.69%. Further, the AC50 under setting [1] was 18.4 µM [rising, single point].

With `COC(=O)c1ccc(CO/N=C/c2ccc(OC)cc2)o1`, the cell number change was -27.9%. In addition, under setting [2], the AC50 was 3.66 µM [falling, full curve, poor fit]. Also, the concentration at half-maximal activity (AC50) under setting [1] was 2.91 µM [falling, full curve].

On to `CC(C)C(=O)NCC(c1ccc2c(c1)OCO2)N1CCOCC1` (stereo not given), for which the cell number change amounted to 22.4%. Besides, the AC50 under setting [1] was 0.731 µM [rising, full curve, poor fit].

Turning to `O=C(CSc1nnnn1-c1cccc2ccccc12)Nc1ccc(N2CCOCC2)c(Cl)c1`, the cell number change turned out to be 48.4%. Under setting [2], the AC50 was 0.731 µM [rising, full curve]. For the same compound, the AC50 under setting [1] is 4.61 µM [rising, partial curve].

With `CCc1ccc(-n2cc(-c3ccc(F)cc3)[n+]3c2SCCC3)cc1`, the cell number change was found to be 14.8%. Under setting [1], the AC50 was 0.116 µM [falling, full curve].

On to `CN(C(=O)c1ccccc1C(=O)OCC(=O)c1ccccc1)c1ccccc1`, for which the cell number change is -9.46%. In addition, the AC50 under setting [1] is 0.146 µM [rising, full curve, poor fit].

On to `Cn1cc(Br)c(C(=O)N/N=C/c2cc3ccccc3nc2Cl)n1`, for which the cell number change was -32%. In addition, the AC50 under setting [2] is 20.6 µM [falling, single point].

As for `O=C(COCc1nc2ccccc2c(=O)[nH]1)NC1CCCC1`, the cell number change is -30.5%. In addition, the AC50 under setting [2] was 5.8 µM [falling, full curve, poor fit]. The AC50 under setting [1] is 5.17 µM [rising, full curve].

With `COc1ccc(CC(=O)Nc2ccc(S(=O)(=O)Nc3cc(C)on3)cc2)cc1`, the AC50 under setting [1] is 0.00461 µM [rising, full curve, poor fit].

Consider `Cc1cc(NC(=O)CCSc2ccc(Cl)cc2)no1`, for which the concentration at half-maximal activity (AC50) under setting [1] is 0.231 µM [falling, full curve, poor fit].

`Cc1ccc2nc(NC(=O)C3CCCN(S(=O)(=O)c4cnc[nH]4)C3)sc2c1` (stereo not given): the cell number change is -23.5%. Moreover, the AC50 under setting [1] was 1.46 µM [falling, partial curve].

As for `COc1cccc(/C=C2\C(=O)C(=O)c3ccccc32)c1`, the AC50 under setting [2] is 3.66 µM [rising, single point].

Turning to `COc1ccc(NC(=O)CC2C(=O)N(c3ccc(OC)cc3)C(=O)N2CCN2CCN(C)CC2)cc1` (stereo not given), the cell number change was -9.75%. Also, the AC50 under setting [2] is 6.51 µM [falling, single point].

In the case of `CC[n+]1c(C)sc2c3ccsc3ccc21`, the cell number change was -6.9%. For the same compound, under setting [2], the AC50 was 1.64 µM [rising, partial curve, poor fit].

As for `O=C(CSc1nnc(C2CC2)n1C1CC1)c1ccc(F)cc1`, the cell number change worked out at 36.3%. Besides, the AC50 under setting [2] was 2.06 µM [rising, single point]. Besides, the AC50 under setting [1] was 16.4 µM [rising, single point].

As to `CC1CCN(S(=O)(=O)c2cc(F)ccc2CN2C(=O)c3cccnc3C2=O)CC1`, the cell number change is -23.3%. Under setting [2], the AC50 was 6.51 µM [rising, single point].

For `CCN(c1ccc(NC(=O)COC(=O)c2ccc(C)c(S(=O)(=O)N3CCOCC3)c2)cc1)C(C)C`, under setting [1], the concentration at half-maximal activity (AC50) is 1.3 µM [falling, full curve].

Take `O=C(COc1ccc(Br)cc1Br)NC1CCCC1`: the cell number change is -33.8%. Under setting [2], the AC50 is 29.1 µM [falling, single point]. For the same compound, the AC50 under setting [1] is 20.6 µM [falling, single point].

On to `Nc1cc(OC(=O)c2ccc(F)cc2)nn1S(=O)(=O)c1ccccc1`, for which the cell number change is 9.46%.

Turning to `COc1cccc2cc(C(=O)CS(=O)(=O)c3ccc(C)cc3)c(=O)oc12`, the cell number change was -51.9%. For the same compound, the AC50 under setting [2] is 14.6 µM [falling, partial curve, poor fit]. Further, under setting [1], the half-maximal activity concentration (AC50) was 5.8 µM [falling, full curve].

Regarding `COc1ccc(NC(=O)CSc2nnc(NC(=O)C3CCC3)s2)c(OC)c1`, the cell number change was 32.8%.

With `Cc1ccnc(NS(=O)(=O)c2ccc(NC(=O)c3snnc3C)cc2)n1`, the cell number change is 20.8%.

Take `NNS(=O)(=O)c1ccc(N2CCCC2=O)c([N+](=O)[O-])c1`: the cell number change was -27.5%. The AC50 under setting [2] is 0.517 µM [falling, full curve, poor fit]. Further, the concentration at half-maximal activity (AC50) under setting [1] was 2.31 µM [falling, full curve].

For the compound `CC(Cc1c[nH]c2ccccc12)C(=O)O` (stereo not given), the cell number change was found to be 7.74%. Further, under setting [1], the AC50 is 0.651 µM [falling, full curve, poor fit].

Turning to `Cc1ccc(OC2=NS(=O)(=O)c3ccccc32)cc1`, the cell number change was -63.7%. Besides, under setting [2], the AC50 was 29.1 µM [falling, single point]. Further, under setting [1], the AC50 was 29.1 µM [falling, single point].

These data come from PubChem BioAssay AID2685 (National Center for Advancing Translational Sciences (NCATS), 2010).
